Experimental data from paper PMC2585101.
For at least one entry, the source does not settle the construct or the ends of the probe. For part of these data: A negative result means that nothing was seen under these conditions. For part of these data: Results from cells or extracts need not show a direct contact.

Legend:
[1] = test system: estrogen receptor alpha (ERα), purified; assay: EMSA (agarose); conditions: 15 mM Tris, 0.2 mM EDTA, 80 mM KCl, 50 uM Zn chloride, 5 mM MgOAc, 10% glycerol, 4 mM DTT, 1 ug poly dI/dC, 1 ug salmon sperm DNA, 1 ug BSA, 10 pmol DNA, recombinant protein
[2] = test system: estrogen receptor alpha (ERα), purified; assay: EMSA (agarose), supershift; conditions: 10 uM E2, HeLa nuclear extract, 15 mM Tris, 0.2 mM EDTA, 80 mM KCl, 50 uM Zn chloride, 5 mM MgOAc, 10% glycerol, 4 mM DTT, 1 ug poly dI/dC, 1 ug salmon sperm DNA, 1 ug BSA, 10 pmol DNA, recombinant protein, label: 32P end label
[3] = test system: estrogen receptor alpha (ERα), purified; assay: competition with a labelled probe; conditions: 10 uM E2, HeLa nuclear extract, 15 mM Tris, 0.2 mM EDTA, 80 mM KCl, 50 uM Zn chloride, 5 mM MgOAc, 10% glycerol, 4 mM DTT, 1 ug poly dI/dC, 1 ug salmon sperm DNA, 1 ug BSA, 10 pmol DNA, recombinant protein
[4] = test system: estrogen receptor alpha (ERα), purified + AIB-1 (p160 coactivator), HeLa nuclear extract; assay: agarose gel complex isolation, immunoblot; conditions: E2, HeLa nuclear extract, ERα antibody, AIB-1 absent without ERα; 15 mM Tris, 0.2 mM EDTA, 80 mM KCl, 50 uM Zn chloride, 5 mM MgOAc, 10% glycerol, 4 mM DTT, 1 ug poly dI/dC, 1 ug salmon sperm DNA, 1 ug BSA, 10 uM E2; 10 pmol DNA; recombinant protein

**Q.** Does “CTAGATTACTTCTCATGTTAGACATACTCA / GATCTGAGTATGTCTAACATGAGAAGTAATCTAG [nonspecific (NS) oligo, radiolabeled]” bind ([1]; E2, HeLa nuclear extract, 10 uM E2, label: 32P)?
**A.** no binding

**Q.** Does “GATTAACTGTCCAAAGTCAGGTCACAGTGACCTGATCAAAGTTAATGTAA (double strand) [vitellogenin A2 ERE oligo]” bind ([1]; 10 uM E2, no nuclear extract, no discrete complex on agarose gel, label: 32P end label)?
**A.** no binding

**Q.** Does “GATTAACTGTCCAAAGTCAGGTCACAGTGACCTGATCAAAGTTAATGTAA (double strand) [vitellogenin A2 ERE oligo]” bind [2]?
**A.** binds

**Q.** Does “CTAGATTACTTCTCATGTTAGACATACTCA / GATCTGAGTATGTCTAACATGAGAAGTAATCTAG [nonspecific (NS) oligo, unlabeled]” bind ([3]; 10 pmol unlabeled vs 10 pmol ERE probe)?
**A.** no binding

**Q.** What does the source list for “GATTAACTGTCCAAAGTCAGGTCACAGTGACCTGATCAAAGTTAATGTAA (double strand) [vitellogenin A2 ERE oligo, unlabeled]”?
**A.** binding result ([3]; 10 pmol unlabeled vs 10 pmol probe): binds; binding result [4]: binds
